Results published in paper PMC8942850 (Nature, 2022).

Assay: Fmoc solid-phase peptide synthesis; Fmoc-Rink amide resin
Conditions: whole synthesis

TAMRA-D-R8
final HPLC purity (HPLC and MS): 99% | isolated yield (overall): 17%
